In PubChem BioAssay AID488837 (National Center for Advancing Translational Sciences (NCATS), 2010):
The campaign covered roughly 330,000 compounds. About 20 (0.006%) were called active. The inconclusive results got no clear call from the source; some entries with a clear call stand among them for comparison. The call rests on the fitted dose curve; in most records, active means well fitted inhibition curve with a large enough effect; inconclusive means small, poorly fitted or top-dose-only effect, or effect the other way; inactive means flat fitted curve, though single readings scatter. A potency beside an inconclusive call is a rough fit, not a confirmed value.
On the % scale 0 is the no-effect control and ±100 the full control effect; potency means the concentration at half of the fitted maximal effect.

Chains of the proteins cited; added tags and fusions are not shown. Lines headed by an entry give the natural chain unless they say otherwise; changes in a name come on top.
UniProt O00167: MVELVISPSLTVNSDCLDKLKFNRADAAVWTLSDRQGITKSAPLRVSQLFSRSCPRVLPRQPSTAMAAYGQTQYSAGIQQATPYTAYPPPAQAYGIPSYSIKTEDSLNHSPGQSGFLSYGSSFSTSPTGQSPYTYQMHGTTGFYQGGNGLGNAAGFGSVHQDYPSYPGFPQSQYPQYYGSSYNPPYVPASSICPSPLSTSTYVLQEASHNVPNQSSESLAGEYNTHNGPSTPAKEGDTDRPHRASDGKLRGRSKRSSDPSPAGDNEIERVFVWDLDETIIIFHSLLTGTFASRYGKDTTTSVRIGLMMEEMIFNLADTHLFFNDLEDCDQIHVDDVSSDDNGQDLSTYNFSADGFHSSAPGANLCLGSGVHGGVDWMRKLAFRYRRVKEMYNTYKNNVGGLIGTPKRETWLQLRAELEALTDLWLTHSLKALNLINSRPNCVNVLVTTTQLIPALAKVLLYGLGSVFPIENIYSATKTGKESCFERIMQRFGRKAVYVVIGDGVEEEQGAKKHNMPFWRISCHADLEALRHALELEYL

Each compound was assayed against Protein phosphatase EYA2 (Homo sapiens) (UniProt O00167) (assay: qHTS Assay for Inhibitors of the Phosphatase Activity of Eya2). Conditions: recombinant Eya2, OMFP fluorescence dephosphorylation (OMFP is methylfluorescein phosphate); activity, negative = inhibition: at 76.9 µM (top of the series) unless noted.
Source text: The Eya family of proteins are essential co-activators of the Six1 transcription factor. Six1 is a developmental gene that is abnormally re-expressed in a large percentage of breast cancers. This over-expression plays a causal role in the initiation and metastatic development of breast cancers. The Eya family of proteins was also found to contain a unique HAD phosphatase domain with protein tyrosine phosphatase activity which can potentially play a role in Six1-mediated breast tumorigenesis. […] We have developed and optimized a 1536 well fluorescence-based HTS assay targeting the phosphatase activity of Eya2. Inhibitors found against Eya2 could serve as potential therapeutic tools to inhibit Six1-mediated breast tumorigenesis and to increase the efficiency of radiation and certain chemo therapy. These inhibitors could also be used as chemical probes to study the function of Eya2's phosphatase activity and its role in Six1-mediated breast tumorigenesis.
The Eya2 enzyme was kindly provided by the laboratory of Dr. Rui Zhao. The 3-O-methyl-fluorescein phosphate (OMFP) substrate and all buffer reagents were purchased from Sigma Aldrich. qHTS Assay Setup: 1. Buffer- 50 mM HEPES pH 7.5, 50 mM NaCl, 5 uM MgCl2, 0.05% BSA, 1 mM DTT. 2. OMFP Stock- 10 mM solution prepared in 100% DMSO and stored in single use aliquots at -20C. Assay Procedure- 1. Dispense 1.5 ul per well of Eya2 at 0.2 uM in black medium binding 1536 well Greiner plate 2. Transfer 23 nl of compound and control compound (EGTA) to plate 3. Incubate at ambient for 10 minutes 4. Dispense 1.5 ul per well of OMFP at 50 uM 5. Incubate at ambient for 10 minutes 6. Read on ViewLux using Excitation = 485 nm, Emission = 525 nm
With `C#CCOCCOCCOCCNc1nc(N2CCN(C(=O)[C@H](Cc3ccc(O)cc3)n3cc(C(N)CC(C)C)nn3)CC2)nc(N2CCN(C(=O)[C@H](CCC(=O)O)n3cc(C(N)[C@H](C)CC)nn3)CC2)n1` (some centres undefined) the Potency was inconclusive: 15.8 µM [inhibitor, single point].
For `CCOC(=O)C(=O)N1CCC(Cc2ccccc2)CC1`, the “activity, negative = inhibition” value was inactive: 0.254%.
With `COc1nnc(OC)c2ccccc12` the Potency was inconclusive: 141 µM [inhibitor, partial curve].
With `Cc1nn(C)c(Oc2ccc(Cl)cc2)c1C(=O)Nc1ccc(F)cc1F` the Potency was inconclusive: 25.1 µM [inhibitor, single point].
`Cc1ccc(SCC(=O)Nc2ccc(-c3nnc(-c4ccco4)o3)cc2)cc1` was tested, and the Potency was inconclusive: 17.8 µM [inhibitor, single point].
In the case of `CCc1nc2ccccc2nc1N1CCN(S(=O)(=O)c2ccccc2)CC1`, the Potency is reported as inconclusive: 89.1 µM [inhibitor, single point].
`O=C(Nc1ccc2c(c1)OCO2)C1CCCN(c2nc3ccccc3s2)C1` (centres undefined) was tested, and the “activity, negative = inhibition” value was inactive: 1.14%.
With `CCN(CC)c1ccc(C(=O)OCC(=O)N(C)Cc2ccccc2)cc1` the Potency was inconclusive: 100 µM [inhibitor, partial curve, poor fit].
In the case of `Cc1cccc(N/C(N)=N/c2nc(C)cc(C)n2)c1`, the “activity, negative = inhibition” value is reported as inactive: 16.1%.
`OCCC1CN(Cc2ccc(F)cc2)CCN1CCc1ccccc1` (centres undefined) was tested, and the Potency was inconclusive: 28.2 µM [inhibitor, single point].
`C[C@@H]1C[C@H](Nc2ccccc2)c2ccccc2N1C(=O)c1cccnc1` was tested, and the Potency was inconclusive: 89.1 µM [inhibitor, partial curve].
With `N#Cc1c(-c2ccccc2)cc(-c2ccccc2)[nH]c1=O` the Potency was inconclusive: 100 µM [inhibitor, single point].
For `Cn1cccc1/C=N/N1CCN(Cc2ccc(Cl)cc2)CC1`, the Potency was inconclusive: 100 µM [inhibitor, single point].
With `Cc1cc2c(s1)c(C=O)c(C(=O)NCc1ccccc1F)n2C` the “activity, negative = inhibition” value was inactive: -21.3%.
With `COc1ccc2[nH]c3c(Cl)ncnc3c2c1` the “activity, negative = inhibition” value was inactive: -6.93%.
In the case of `COc1ccccc1-c1oc2ccccc2c1-c1ccccc1OC`, the Potency is reported as inconclusive: 25.1 µM [inhibitor, partial curve, poor fit].
In the case of `O=C(NCC(=O)N1CC=C(c2ccccc2)CC1)c1ccc(OC(F)F)cc1`, the Potency is reported as inconclusive: 70.8 µM [inhibitor, single point].
In the case of `COc1cc(/C=N/NC(=O)c2cc(-c3ccco3)nc3ccccc23)cc(OC)c1O`, the Potency is reported as inconclusive: 89.1 µM [inhibitor, single point].
In the case of `Fc1ccccc1NC(=S)N(CCN1CCCCCC1)Cc1cccs1`, the “activity, negative = inhibition” value is reported as inactive: -5.9%.
